Assay results reported in patent US10624913B2, “Diagnostics and methods for treatment of non-alcoholic hepatic steatosis and hepatic steatohepatitis, and prevention of complications thereof” (VOLANT HOLDINGS GMBH, priority 2011, dated 2020).
Structures can show the parent of a compound that is named as a salt.

How the values were obtained:
[1] = system: patients with multiple manifestations of MetS; experiment: Treatment comparison of RYGB, Brake or atorvastatin (Lipitor), each added to standard of care (Example 3); assay type: in vivo, human; settings: before, at 6 and 12 months; result in words
From the text: FIG. 20. The mean age in the Brake™ plus SOC group was 50±11 years with a mean BMI of 34±5.8 and the majority of subjects were female (68%). […] Except for this large difference in baseline weight in RYGB patients, baseline metabolic characteristics were similar between case cohorts. […] There were no other significant differences in baseline lipid indices. The RYGB plus SOC group had the highest percentage of patients on diabetic or cardiovascular medications. […] All patients were given 10 gm Brake™ once Daily, orally, 4 hrs prior to their main meal Pertinent demographic and clinical data were retrieved from medical records for all patients, and shown in FIG. 21. Variables included age, gender, body weight, lipid panel (low-density lipoprotein [LDL], high-density lipoprotein [HDL], triglycerides [TG], and total cholesterol [TC]), HbA1c, and liver function tests (aspartate aminotransferase [AST] and alanine aminotransferase [ALT]). […] From the beginning, the patients who began the study with abnormal findings were separated from the patients with initially normal values and those with abnormal findings were further analyzed to define the magnitude of change as well as the percent change from baseline pre-therapy. […] Data were subsequently analyzed for percent change by biomarker from both of these two perspectives. […]

[2] = system: metabolic syndrome / cardiovascular risk (FS index, CV index); experiment: Cross comparison of FS index and CV index in treated patients (Example 2); assay type: in vivo, human; settings: before, at 6 and 12 months, added to SoC, words

CC(C)c1c(C(=O)Nc2ccccc2)c(-c2ccccc2)c(-c2ccc(F)cc2)n1CC[C@@H](O)C[C@@H](O)CC(=O)O (relative stereo) [atorvastatin, [R—(R*,R*)]-2-(4-fluorophenyl)-β,δ-dihydroxy-5-(l-methylethyl)-3-phenyl-4-[(phenylamino)-carbonyl]-1H-pyrrole-1-heptanoic acid; calcium salt (2:1) trihydrate]
Changes in HbA1c over pre-treatment baseline [1]: not | Changes in CV index over pre-treatment baseline [2]: not | Changes in FS index over pre-treatment baseline ([2]; trihydrate): not and did not change the FS index
